Experimental data taken from patent US10281459B2 (YEDA RESEARCH AND DEVELOPMENT CO. LTD., priority 2012, dated 2019).

Experiment: general procedure: Fmoc solid-phase peptide synthesis; Rink amide resin; PyBOP/DIEA
Conditions: conjugation step

| Substance | conjugation yield [%] |
| --- | --- |
| N3—(CH2)3-I-E-A-D-K(dansyl)-G-I-D | 30 |
| N3—(CH2)3-K(dansyl)-F-D-S-E-F-D-S-E | 48 |
| N3—(CH2)3-K(dansyl)-S-T-G-V-S-T-G-V | 14 |
| N3—(CH2)3-S-T-A-F-A-Y-G-K(dansyl) | 30 |
| N3—(CH2)3-Y-G-E-G-E-F-N-K(dansyl) | 55 |
